Data published in US20150087604A1 (TIANJIN TOPTECH BIO-SCIENCE & TECHNOLOGY CO., LTD., priority 2011, published 2015).

Assay: general procedure: Fmoc solid-phase peptide synthesis; chloromethylated polystyrene (chlorinated benzyl ester resin)
Details: whole synthesis, HPLC (Agela C18 column)

Gly-Gly-Cys-Arg-His-Lys-Leu-Val-Cys-Ala-Pro-Ala-Pro-Cys-Asn-Phe-Phe-Thr
final HPLC purity (run 1): 98%
final HPLC purity (run 2): 98.11%
